We go through one substance from PMC3154960.

Amino acid sequences for entries named in this document (tags omitted).
UniProt P11978: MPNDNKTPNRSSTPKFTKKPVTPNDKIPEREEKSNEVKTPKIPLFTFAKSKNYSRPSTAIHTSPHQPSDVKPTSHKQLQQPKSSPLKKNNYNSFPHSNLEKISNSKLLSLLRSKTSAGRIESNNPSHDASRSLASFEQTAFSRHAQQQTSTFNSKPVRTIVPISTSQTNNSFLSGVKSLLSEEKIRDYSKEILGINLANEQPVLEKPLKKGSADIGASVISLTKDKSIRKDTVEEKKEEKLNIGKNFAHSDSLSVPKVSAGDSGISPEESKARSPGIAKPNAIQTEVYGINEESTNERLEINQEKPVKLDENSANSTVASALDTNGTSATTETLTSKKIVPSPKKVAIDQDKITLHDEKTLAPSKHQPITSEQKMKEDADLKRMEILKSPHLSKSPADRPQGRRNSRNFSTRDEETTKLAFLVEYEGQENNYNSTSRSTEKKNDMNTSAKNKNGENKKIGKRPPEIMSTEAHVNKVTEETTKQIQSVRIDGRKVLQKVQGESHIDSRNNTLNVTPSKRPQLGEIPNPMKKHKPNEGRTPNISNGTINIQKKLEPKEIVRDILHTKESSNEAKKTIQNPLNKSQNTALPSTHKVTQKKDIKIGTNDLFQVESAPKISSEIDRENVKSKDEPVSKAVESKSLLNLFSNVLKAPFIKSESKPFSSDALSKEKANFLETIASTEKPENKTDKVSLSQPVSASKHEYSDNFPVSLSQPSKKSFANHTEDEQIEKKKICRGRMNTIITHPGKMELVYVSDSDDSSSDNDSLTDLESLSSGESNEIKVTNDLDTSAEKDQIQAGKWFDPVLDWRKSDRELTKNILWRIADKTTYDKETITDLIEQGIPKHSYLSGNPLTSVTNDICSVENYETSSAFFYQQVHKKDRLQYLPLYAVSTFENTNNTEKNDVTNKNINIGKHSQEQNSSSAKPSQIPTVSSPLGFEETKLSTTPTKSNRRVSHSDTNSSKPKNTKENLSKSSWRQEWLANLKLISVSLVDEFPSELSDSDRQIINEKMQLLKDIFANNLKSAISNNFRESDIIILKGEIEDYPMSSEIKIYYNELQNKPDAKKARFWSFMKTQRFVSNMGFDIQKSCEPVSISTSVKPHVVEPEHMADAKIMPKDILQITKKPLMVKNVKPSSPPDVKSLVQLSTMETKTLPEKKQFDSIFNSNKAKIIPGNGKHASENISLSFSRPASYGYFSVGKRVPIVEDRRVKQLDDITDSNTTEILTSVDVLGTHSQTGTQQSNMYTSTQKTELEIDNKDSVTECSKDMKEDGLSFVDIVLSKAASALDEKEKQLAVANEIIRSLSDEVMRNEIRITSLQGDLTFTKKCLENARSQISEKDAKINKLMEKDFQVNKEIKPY

Where a chain is given by its changes, count along the chain named. Results are given in words; binding and its absence hold for the method and conditions named. Some binding calls cover weakened binding; strength is not graded here.

Assay [1] addresses T1, yku80-p1 BAIT (S. cerevisiae) (UniProt Q04437).
T1 sequence: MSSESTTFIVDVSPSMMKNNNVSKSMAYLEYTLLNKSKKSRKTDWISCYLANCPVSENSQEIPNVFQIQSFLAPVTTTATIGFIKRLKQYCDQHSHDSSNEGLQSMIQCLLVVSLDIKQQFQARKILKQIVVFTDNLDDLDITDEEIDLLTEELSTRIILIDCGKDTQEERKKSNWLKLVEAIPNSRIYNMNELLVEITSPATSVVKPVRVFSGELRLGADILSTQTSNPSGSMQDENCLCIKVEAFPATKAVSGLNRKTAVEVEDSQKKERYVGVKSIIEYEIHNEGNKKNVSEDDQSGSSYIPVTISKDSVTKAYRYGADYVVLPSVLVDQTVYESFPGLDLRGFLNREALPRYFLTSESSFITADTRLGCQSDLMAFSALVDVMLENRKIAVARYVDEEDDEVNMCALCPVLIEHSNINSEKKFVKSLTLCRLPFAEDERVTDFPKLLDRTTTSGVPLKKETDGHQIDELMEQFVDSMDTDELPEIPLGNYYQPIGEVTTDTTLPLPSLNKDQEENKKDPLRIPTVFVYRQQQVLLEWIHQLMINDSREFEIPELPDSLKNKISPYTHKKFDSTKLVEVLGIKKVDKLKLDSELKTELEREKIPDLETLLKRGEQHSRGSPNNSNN
The assay is described as follows: two-hybrid; pEG202-based BAIT (YKU80 or yku80-p1), pJG4-5-based PREY (full-length Sir4), LEU2 reporter, growth on Gal –Leu plates; strain YAB327 (yku70-Δ derivative of EGY48) carrying YKU70, yku70-R456E, yku70-p1, yku70-K422E or pRS416.

For assay [2], the target named is T2, YKU80 BAIT (S. cerevisiae) (UniProt Q04437).
T2 sequence: T1 sequence with D400S, E401K, E402K, D404S
The description is as above.

SIR4 PREY (from UniProt P11978 1-1358): the binding result in assay [1] and in assay [2] was “binds” in each case.
